# Results are given in words; binding and its absence hold for the method and conditions named. In cells and extracts the contact can be indirect. A result given as binding can be weak or reduced; the word gives no strength.
# B1: isocitrate dehydrogenase IDH2 (enzyme, UniProt P48735 40-452)
# chain: ADKRIKVAKPVVEMDGDEMTRIIWQFIKEKLILPHVDIQLKYFDLGLPNRDQTDDQVTIDSALATQKYSVAVKCATITPDEARVEEFKLKKMWKSPNGTIRNILGGTVFREPIICKNIPRLVPGWTKPITIGRHAHGDQYKATDFVADRAGTFKMVFTPKDGSGVKEWEVYNFPAGGVGMGMYNTDESISGFAHSCFQYAIQKKWPLYMSTKNTILKAYDGRFKDIFQEIFDKHYKTDFDKNKIWYEHRLIDDMVAQVLKSSGGFVWACKNYDGDVQSDILAQGFGSLGLMTSVLVCPDGKTIEAEAAHGTVTRHYREHQKGRPTSTNPIASIFAWTRGLEHRGKLDGNQDLIRFAQMLEKVCVETVESGAMTKDLAGCIHGLSNVKLNEHFLNTTDFLDTIKSNLDRALGRQ
# B2: isocitrate dehydrogenase IDH3A (enzyme, UniProt P50213 28-366)
# chain: TGGVQTVTLIPGDGIGPEISAAVMKIFDAAKAPIQWEERNVTAIQGPGGKWMIPSEAKESMDKNKMGLKGPLKTPIAAGHPSMNLLLRKTFDLYANVRPCVSIEGYKTPYTDVNIVTIRENTEGEYSGIEHVIVDGVVQSIKLITEGASKRIAEFAFEYARNNHRSNVTAVHKANIMRMSDGLFLQKCREVAESCKDIKFNEMYLDTVCLNMVQDPSQFDVLVMPNLYGDILSDLCAGLIGGLGVTPSGNIGANGVAIFESVHGTAPDIAGKDMANPTALLLSAVMMLRHMGLFDHAARIEAACFATIKDGKSLTKDLGGNAKCSDFTEEICRRVKDLD
# B3: isocitrate dehydrogenase IDH3G (enzyme, UniProt P51553 40-393)
# chain: FSEQTIPPSAKYGGRHTVTMIPGDGIGPELMLHVKSVFRHACVPVDFEEVHVSSNADEEDIRNAIMAIRRNRVALKGNIETNHNLPPSHKSRNNILRTSLDLYANVIHCKSLPGVVTRHKDIDILIVRENTEGEYSSLEHESVAGVVESLKIITKAKSLRIAEYAFKLAQESGRKKVTAVHKANIMKLGDGLFLQCCREVAARYPQITFENMIVDNTTMQLVSRPQQFDVMVMPNLYGNIVNNVCAGLVGGPGLVAGANYGHVYAVFETATRNTGKSIANKNIANPTATLLASCMMLDHLKLHSYATSIRKAVLASMDNENMHTPDIGGQGTTSEAIQDVIRHIRVINGRAVEA
# Biological target: FLAG-tagged Keratin 18 S30A (human)
# Assay: co-IP
row,Binder,binding
1,B1,binds
2,B2,binds
3,B3,binds

# Biological target: FLAG-tagged Keratin 18 S30A (human)
# Assay: co-IP
# Remark: another data set of the same source
row,Binder,binding
1,B1,binds
2,B2,binds
3,B3,binds
